Data as given in PubChem BioAssay AID1259261 (Sanger Institute, 2017)
In all, the deposit lists 794 reagents; below is a random part of them. In the full data, 10 (1.3%) were called active. 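Calls reflect knock-down alone without drug; synergy scores with BYL719, cetuximab or trametinib do not affect calls.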 Not all columns of the deposit are shown. Not given: the amount of reagent, the time to read-out.

Screen: 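Kinase knock-downs that kill colorectal cancer cells or boost targeted drugs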 (primary screen)
Cells: HCC2998 human colorectal cancer cells
Knock-down reagent: siRNA pool against human genes
Treatment: anchor drugs BYL719 1 µM, cetuximab 5 µg/ml or trametinib 10 nM, each compared with DMSO vehicle
Measurement: 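Viability as fraction of non-targeting control plus robust z-score without drug; synergy scores compare knock-down plus drug against each alone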
Scale: viability z-score, knock-down alone: higher = more viable cells than controls
Hit rule: 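a knock-down is called essential if its robust z-score without drug is under -3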
Calls: active = essential; inactive = no change

Target gene | PubChem SID | viability z-score, knock-down alone | call
EPHA8 | SID135620615 | 1.15 | inactive
NUP107 | SID152154550 | -3.29 | active
CSNK2A2 | SID56478861 | 0.0888 | inactive
PAPSS2 | SID152148635 | 0.694 | inactive
CAMKK2 | SID135620895 | 0.0588 | inactive
HIPK3 | SID152151658 | -0.333 | inactive
COASY | SID56479117 | -3.07 | active
VRK1 | SID152147475 | -0.0112 | inactive
MET | SID56478534 | 0.353 | inactive
ELP1 | SID56479224 | 1.12 | inactive
BRDT | SID152149808 | -1.11 | inactive
NUAK1 | SID56478923 | -0.932 | inactive
SHPK | SID135621260 | 1.21 | inactive
STRADA | SID152149670 | 0.906 | inactive
MAP4K4 | SID56478747 | 1.21 | inactive
ACVR1 | SID152154539 | -0.252 | inactive
CDK5R2 | SID56479219 | 0.426 | inactive
FCSK | SID152149608 | 0.14 | inactive
PKN2 | SID152156352 | 1.21 | inactive
TSSK4 | SID56478999 | -0.914 | inactive
PDK1 | SID56478951 | 1.21 | inactive
WEE1 | SID152152823 | -2.78 | inactive
MAPK7 | SID56478666 | 0.426 | inactive
LMTK2 | SID152147902 | -0.469 | inactive
CAMKK1 | SID135620905 | 0.759 | inactive
PRKACB | SID56478825 | 0.217 | inactive
RPS6KL1 | SID152155635 | -0.404 | inactive
PRKD1 | SID152147507 | 1.21 | inactive
WNK2 | SID56479037 | 1.21 | inactive
LRRK2 | SID152152689 | 1.21 | inactive
CSNK2B | SID56479183 | -1.25 | inactive
PDK3 | SID152151041 | -1.18 | inactive
PAK3 | SID56478716 | -0.924 | inactive
TBK1 | SID56478726 | -0.0851 | inactive
BLK | SID56478485 | 1.21 | inactive
STKLD1 | SID152151495 | -0.403 | inactive
MAPKAPK5 | SID56478947 | 1.16 | inactive
RAF1 | SID152152442 | -2.04 | inactive
FGFR1 | SID135620619 | 1.21 | inactive
BRD2 | SID135620911 | -0.552 | inactive
TGFBR2 | SID152152630 | 0.393 | inactive
MAP3K6 | SID56478746 | 1.1 | inactive
KCNH8 | SID134311656 | 0.0732 | inactive
MAP2K6 | SID135620765 | 0.55 | inactive
EPHA2 | SID135620614 | 1.21 | inactive
IPPK | SID152153893 | 0.438 | inactive
POMK | SID56479008 | 1.12 | inactive
MAP3K14 | SID135620705 | -0.729 | inactive
EFNA5 | SID152151552 | 1.21 | inactive
FXR1 | SID152147249 | -0.872 | inactive

No new results follow: an excerpt of the list.
Target gene | PubChem SID | viability z-score, knock-down alone | call
BLK | SID56478485 | 1.21 | inactive
STKLD1 | SID152151495 | -0.403 | inactive
MAPKAPK5 | SID56478947 | 1.16 | inactive
RAF1 | SID152152442 | -2.04 | inactive
FGFR1 | SID135620619 | 1.21 | inactive
BRD2 | SID135620911 | -0.552 | inactive
TGFBR2 | SID152152630 | 0.393 | inactive
MAP3K6 | SID56478746 | 1.1 | inactive
